Measured values reported in article PMC10754121.
Results are given in words; binding and its absence hold for the method and conditions named. Binding seen in cells or lysates may run through a third protein. These calls come from enrichment with a bait or labelling near it, and not all partners need be listed.

Protein sequences, listed by entry. Tags and fused reporters are not part of them.
UniProt O95573: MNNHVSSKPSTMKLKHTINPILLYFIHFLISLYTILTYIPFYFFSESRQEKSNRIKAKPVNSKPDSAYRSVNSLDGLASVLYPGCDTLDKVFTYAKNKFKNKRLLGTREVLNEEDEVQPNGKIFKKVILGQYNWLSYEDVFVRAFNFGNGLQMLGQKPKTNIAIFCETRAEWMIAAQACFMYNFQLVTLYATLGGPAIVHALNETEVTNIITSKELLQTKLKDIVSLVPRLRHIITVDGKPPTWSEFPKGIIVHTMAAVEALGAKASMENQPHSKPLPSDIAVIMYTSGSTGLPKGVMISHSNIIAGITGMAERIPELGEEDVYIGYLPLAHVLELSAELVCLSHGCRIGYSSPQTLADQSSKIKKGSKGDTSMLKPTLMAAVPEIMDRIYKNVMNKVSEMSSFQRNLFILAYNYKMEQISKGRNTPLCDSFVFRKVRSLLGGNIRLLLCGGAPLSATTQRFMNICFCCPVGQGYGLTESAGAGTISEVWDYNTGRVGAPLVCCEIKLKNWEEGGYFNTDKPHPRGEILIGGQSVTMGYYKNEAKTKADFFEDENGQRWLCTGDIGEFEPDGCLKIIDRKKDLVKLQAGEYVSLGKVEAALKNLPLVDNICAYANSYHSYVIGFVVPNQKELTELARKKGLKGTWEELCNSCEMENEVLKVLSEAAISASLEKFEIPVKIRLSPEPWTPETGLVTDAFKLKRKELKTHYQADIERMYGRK
UniProt O60488: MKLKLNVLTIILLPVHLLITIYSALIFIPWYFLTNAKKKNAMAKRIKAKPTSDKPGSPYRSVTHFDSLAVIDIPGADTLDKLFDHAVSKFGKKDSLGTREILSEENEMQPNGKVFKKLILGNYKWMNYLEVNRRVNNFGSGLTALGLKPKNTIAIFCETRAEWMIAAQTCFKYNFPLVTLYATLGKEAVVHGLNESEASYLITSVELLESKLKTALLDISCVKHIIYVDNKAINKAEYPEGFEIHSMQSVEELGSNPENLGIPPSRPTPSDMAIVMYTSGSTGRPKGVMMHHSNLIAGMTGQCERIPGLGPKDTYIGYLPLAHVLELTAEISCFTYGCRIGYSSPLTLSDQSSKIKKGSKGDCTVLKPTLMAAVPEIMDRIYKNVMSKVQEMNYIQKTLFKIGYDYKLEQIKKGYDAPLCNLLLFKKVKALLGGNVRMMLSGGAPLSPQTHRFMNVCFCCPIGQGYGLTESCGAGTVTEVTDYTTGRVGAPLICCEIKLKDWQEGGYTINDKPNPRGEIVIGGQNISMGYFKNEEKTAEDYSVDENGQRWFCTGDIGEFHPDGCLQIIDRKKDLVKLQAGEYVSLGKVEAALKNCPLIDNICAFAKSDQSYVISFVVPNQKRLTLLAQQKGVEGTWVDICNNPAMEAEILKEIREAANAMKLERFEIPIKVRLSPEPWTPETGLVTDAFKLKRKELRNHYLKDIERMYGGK
UniProt Q14258: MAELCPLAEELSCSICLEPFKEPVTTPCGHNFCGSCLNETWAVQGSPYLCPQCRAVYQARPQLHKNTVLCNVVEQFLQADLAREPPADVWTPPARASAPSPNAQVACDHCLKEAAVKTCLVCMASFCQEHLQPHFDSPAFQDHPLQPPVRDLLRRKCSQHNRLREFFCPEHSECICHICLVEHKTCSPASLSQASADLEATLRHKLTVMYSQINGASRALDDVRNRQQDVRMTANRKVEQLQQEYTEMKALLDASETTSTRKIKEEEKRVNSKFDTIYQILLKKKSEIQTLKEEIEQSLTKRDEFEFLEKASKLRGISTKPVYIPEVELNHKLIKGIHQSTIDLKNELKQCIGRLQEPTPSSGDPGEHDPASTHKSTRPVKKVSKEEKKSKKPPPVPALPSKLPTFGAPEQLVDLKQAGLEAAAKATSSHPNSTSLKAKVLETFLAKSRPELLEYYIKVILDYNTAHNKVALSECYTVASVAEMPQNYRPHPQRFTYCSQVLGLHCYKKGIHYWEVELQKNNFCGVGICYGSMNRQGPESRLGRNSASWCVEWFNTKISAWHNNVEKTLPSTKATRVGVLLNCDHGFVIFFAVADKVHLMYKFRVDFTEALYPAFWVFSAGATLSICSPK
UniProt Q9Y4X5: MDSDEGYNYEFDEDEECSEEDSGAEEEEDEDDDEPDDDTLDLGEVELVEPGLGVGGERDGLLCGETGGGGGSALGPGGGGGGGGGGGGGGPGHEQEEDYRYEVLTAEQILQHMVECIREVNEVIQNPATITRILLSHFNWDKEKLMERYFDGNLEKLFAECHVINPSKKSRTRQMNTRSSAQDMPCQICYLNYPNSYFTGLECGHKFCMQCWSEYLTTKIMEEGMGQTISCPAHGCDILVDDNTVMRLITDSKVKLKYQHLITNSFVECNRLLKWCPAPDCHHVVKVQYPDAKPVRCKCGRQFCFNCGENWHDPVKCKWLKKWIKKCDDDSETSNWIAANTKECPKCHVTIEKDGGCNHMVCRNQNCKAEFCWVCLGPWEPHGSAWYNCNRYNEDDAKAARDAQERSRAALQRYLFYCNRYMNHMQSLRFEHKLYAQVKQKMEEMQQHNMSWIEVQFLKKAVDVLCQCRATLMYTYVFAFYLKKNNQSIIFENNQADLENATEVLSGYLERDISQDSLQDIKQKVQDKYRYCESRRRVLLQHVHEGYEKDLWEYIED
UniProt Q7Z6E9: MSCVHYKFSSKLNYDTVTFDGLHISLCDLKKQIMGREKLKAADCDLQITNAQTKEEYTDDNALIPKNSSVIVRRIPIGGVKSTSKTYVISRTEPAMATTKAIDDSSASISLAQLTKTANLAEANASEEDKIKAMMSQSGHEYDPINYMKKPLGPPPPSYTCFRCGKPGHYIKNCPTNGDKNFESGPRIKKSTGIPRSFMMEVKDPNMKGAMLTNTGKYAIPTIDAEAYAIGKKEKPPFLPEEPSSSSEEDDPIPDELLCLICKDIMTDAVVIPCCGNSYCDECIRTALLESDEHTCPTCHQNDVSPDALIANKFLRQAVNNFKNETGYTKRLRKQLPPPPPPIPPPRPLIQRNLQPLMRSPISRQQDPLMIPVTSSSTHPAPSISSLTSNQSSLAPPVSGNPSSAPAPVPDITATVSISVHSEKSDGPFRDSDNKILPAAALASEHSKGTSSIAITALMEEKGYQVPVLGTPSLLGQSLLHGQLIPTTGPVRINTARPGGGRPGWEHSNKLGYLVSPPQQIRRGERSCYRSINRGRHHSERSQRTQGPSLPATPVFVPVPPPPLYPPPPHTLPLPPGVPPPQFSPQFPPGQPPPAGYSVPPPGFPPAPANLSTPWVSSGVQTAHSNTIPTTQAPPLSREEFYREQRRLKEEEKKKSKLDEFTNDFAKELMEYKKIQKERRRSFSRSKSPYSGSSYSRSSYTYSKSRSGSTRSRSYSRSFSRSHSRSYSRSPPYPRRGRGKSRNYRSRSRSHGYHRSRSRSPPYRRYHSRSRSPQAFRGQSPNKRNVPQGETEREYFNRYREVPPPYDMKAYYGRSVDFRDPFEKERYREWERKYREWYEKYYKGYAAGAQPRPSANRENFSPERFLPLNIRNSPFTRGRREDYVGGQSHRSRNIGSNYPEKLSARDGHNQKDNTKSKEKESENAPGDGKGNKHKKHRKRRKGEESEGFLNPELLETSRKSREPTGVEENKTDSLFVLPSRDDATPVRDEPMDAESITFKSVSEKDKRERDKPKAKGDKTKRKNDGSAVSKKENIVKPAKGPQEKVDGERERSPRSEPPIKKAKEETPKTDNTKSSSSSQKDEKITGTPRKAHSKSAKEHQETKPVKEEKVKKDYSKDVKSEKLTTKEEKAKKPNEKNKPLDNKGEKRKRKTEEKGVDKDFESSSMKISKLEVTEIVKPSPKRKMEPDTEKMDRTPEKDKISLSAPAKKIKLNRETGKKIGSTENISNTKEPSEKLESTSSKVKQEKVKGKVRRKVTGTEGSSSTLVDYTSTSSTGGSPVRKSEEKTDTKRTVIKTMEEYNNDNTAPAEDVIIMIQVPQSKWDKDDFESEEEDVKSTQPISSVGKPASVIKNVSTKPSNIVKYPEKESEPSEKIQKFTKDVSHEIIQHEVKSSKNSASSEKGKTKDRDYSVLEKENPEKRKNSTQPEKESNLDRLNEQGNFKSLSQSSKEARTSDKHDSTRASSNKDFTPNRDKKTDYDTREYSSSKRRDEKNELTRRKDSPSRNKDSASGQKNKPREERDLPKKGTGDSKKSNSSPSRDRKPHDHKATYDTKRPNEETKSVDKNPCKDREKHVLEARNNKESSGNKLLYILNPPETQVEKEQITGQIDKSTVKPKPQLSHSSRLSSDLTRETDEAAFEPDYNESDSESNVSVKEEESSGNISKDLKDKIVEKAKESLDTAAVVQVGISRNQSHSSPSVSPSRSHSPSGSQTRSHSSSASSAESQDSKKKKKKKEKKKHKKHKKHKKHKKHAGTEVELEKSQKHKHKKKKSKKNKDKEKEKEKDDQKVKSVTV
UniProt Q9UPN9: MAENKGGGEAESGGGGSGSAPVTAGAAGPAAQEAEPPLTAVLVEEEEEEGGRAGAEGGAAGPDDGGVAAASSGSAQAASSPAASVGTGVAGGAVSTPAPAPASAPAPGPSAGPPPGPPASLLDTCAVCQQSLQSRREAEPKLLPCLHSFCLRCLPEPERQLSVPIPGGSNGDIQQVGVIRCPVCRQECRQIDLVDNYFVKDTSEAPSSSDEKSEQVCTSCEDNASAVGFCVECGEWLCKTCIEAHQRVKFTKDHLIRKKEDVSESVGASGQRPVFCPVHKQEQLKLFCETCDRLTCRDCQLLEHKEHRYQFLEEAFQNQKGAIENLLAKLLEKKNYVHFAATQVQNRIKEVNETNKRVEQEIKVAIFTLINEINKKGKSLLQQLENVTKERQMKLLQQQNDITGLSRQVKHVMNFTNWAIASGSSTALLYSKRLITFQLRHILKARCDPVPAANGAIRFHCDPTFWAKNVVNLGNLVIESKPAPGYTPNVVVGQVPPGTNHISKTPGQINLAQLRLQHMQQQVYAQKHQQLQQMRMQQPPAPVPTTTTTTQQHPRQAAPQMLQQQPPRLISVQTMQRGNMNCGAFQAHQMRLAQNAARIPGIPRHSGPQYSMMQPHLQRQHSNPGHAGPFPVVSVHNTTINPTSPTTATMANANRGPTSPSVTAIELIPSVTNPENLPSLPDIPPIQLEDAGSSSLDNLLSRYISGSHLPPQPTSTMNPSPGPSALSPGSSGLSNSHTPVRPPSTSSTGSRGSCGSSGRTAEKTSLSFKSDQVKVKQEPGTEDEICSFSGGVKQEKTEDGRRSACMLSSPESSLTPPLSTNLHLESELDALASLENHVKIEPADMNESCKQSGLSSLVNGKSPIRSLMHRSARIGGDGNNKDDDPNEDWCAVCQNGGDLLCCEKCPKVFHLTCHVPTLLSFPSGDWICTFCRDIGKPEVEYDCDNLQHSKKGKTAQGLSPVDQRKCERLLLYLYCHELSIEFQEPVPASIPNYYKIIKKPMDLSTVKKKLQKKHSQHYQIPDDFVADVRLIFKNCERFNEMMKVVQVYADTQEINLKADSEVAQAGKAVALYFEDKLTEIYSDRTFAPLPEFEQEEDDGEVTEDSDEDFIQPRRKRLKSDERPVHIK

T1: CARM1 (enriched by IP for mass spectrometry) (UniProt Q86X55)
T1 sequence: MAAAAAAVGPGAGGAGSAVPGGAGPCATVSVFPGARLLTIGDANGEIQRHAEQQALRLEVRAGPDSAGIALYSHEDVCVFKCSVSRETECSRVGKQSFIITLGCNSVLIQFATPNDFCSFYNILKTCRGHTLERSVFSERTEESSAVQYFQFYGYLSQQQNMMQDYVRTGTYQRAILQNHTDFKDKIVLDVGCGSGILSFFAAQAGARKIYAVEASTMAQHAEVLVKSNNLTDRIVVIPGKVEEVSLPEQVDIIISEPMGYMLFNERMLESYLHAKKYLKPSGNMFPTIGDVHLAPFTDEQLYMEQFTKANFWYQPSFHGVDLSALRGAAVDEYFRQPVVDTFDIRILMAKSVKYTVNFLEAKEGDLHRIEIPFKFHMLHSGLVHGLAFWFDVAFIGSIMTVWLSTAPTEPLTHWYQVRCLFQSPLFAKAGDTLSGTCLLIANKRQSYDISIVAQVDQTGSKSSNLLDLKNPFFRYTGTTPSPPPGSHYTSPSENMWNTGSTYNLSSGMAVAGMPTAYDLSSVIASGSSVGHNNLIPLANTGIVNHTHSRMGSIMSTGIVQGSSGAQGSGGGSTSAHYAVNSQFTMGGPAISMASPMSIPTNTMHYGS


target: T1, CARM1 (enriched by IP for mass spectrometry); assay: affinity purification with mass spectrometry; CARM1 enriched by IP, separated by SDS-PAGE, gel bands digested with trypsin, Orbitrap Fusion; cells not given

binding	Molecule
binds	ACSL3 (hit of the CARM1 mass spectrometry) (from UniProt O95573 1-720) (enzyme)

target: ACSL4 (in the IP samples for mass spectrometry) (UniProt O60488); assay: affinity purification with mass spectrometry; ACSL4 enriched by IP, separated by SDS-PAGE, gel bands digested with trypsin, Orbitrap Fusion; cells not given

binding	Molecule
binds	TRIM25 (hit of the ACSL4 mass spectrometry) (from UniProt Q14258 1-630) (enzyme)
binds	ARIH1 (hit of the ACSL4 mass spectrometry) (from UniProt Q9Y4X5 1-557) (enzyme)
binds	RBBP6 (hit of the ACSL4 mass spectrometry) (from UniProt Q7Z6E9 1-1792) (enzyme)
binds	TRIM33 (hit of the ACSL4 mass spectrometry) (from UniProt Q9UPN9 1-1127) (enzyme)
binds	PJA1 (hit of the ACSL4 mass spectrometry) (enzyme, UniProt Q8NG27 1-643) MGQESSKPVWPNPTGGYQSNTGRRYGRRHAYVSFRPPTSQRERIASQRKTNSEVPMHRSAPSQTTKRSRSPFSTTRRSWDDSESSGTNLNIDNEDYSRYPPREYRASGSRRGMAYGHIDSYGADDSEEEGAGPVERPPVRGKTGKFKDDKLYDPEKGARSLAGPPPHFSSFSRDVREERDKLDPVPAARCSASRADFLPQSSVASQSSSEGKLATKGDSSERERREQNLPARPSRAPVSICGGGENTSKSAEEPVVRPKIRNLASPNCVKPKIFFDTDDDDDMPHSTSRWRDTANDNEGHSDGLARRGRGESSSGYPEPKYPEDKREARSDQVKPEKVPRRRRTMADPDFWTHSDDYYKYCDEDSDSDKEWIAALRRKYRSREQTLSSSGESWETLPGKEEREPPQAKVSASTGTSPGPGASASAGAGAGASAGSNGSNYLEEVREPSLQEEQASLEEGEIPWLQYHENDSSSEGDNDSGHELMQPGVFMLDGNNNLEDDSSVSEDLEVDWSLFDGFADGLGVAEAISYVDPQFLTYMALEERLAQAMETALAHLESLAVDVEVANPPASKESIDALPEILVTEDHGAVGQEMCCPICCSEYVKGEVATELPCHHYFHKPCVSIWLQKSGTCPVCRCMFPPPL
binds	CBLL1 (hit of the ACSL4 mass spectrometry) (enzyme, UniProt Q75N03 1-491) MDHTDNELQGTNSSGSLGGLDVRRRIPIKLISKQANKAKPAPRTQRTINRMPAKAPPGDEEGFDYNEEERYDCKGGELFANQRRFPGHLFWDFQINILGEKDDTPVHFCDKCGLPIKIYGRMIPCKHVFCYDCAILHEKKGDKMCPGCSDPVQRIEQCTRGSLFMCSIVQGCKRTYLSQRDLQAHINHRHMRAGKPVTRASLENVHPPIAPPPTEIPERFIMPPDKHHMSHIPPKQHIMMPPPPLQHVPHEHYNQPHEDIRAPPAELSMAPPPPRSVSQETFRISTRKHSNLITVPIQDDSNSGAREPPPPAPAPAHHHPEYQGQPVVSHPHHIMPPQQHYAPPPPPPPPISHPMPHPPQAAGTPHLVYSQAPPPPMTSAPPPITPPPGHIIAQMPPYMNHPPPGPPPPQHGGPPVTAPPPHHYNPNSLPQFTEDQGTLSPPFTQPGGMSPGIWPAPRGPPPPPRLQGPPSQTPLPGPHHPDQTRYRPYYQ
binds	RNF25 (hit of the ACSL4 mass spectrometry) (enzyme, UniProt Q96BH1 1-459) MAASASAAAGEEDWVLPSEVEVLESIYLDELQVIKGNGRTSPWEIYITLHPATAEDQDSQYVCFTLVLQVPAEYPHEVPQISIRNPRGLSDEQIHTILQVLGHVAKAGLGTAMLYELIEKGKEILTDNNIPHGQCVICLYGFQEKEAFTKTPCYHYFHCHCLARYIQHMEQELKAQGQEQEQERQHATTKQKAVGVQCPVCREPLVYDLASLKAAPEPQQPMELYQPSAESLRQQEERKRLYQRQQERGGIIDLEAERNRYFISLQQPPAPAEPESAVDVSKGSQPPSTLAAELSTSPAVQSTLPPPLPVATQHICEKIPGTRSNQQRLGETQKAMLDPPKPSRGPWRQPERRHPKGGECHAPKGTRDTQELPPPEGPLKEPMDLKPEPHSQGVEGPPQEKGPGSWQGPPPRRTRDCVRWERSKGRTPGSSYPRLPRGQGAYRPGTRRESLGLESKDGS
